The experiment concerns the target r-Antidote (recombinant antidote; human factor Xa triple mutant after removal of the -RKRRKR- linker) (human) (UniProt P00742). In words: affinity chromatography of conditioned medium on immobilised soybean trypsin inhibitor.

Chains of the proteins cited; added tags and fusions are not shown. Lines headed by an entry give the natural chain unless they say otherwise; changes in a name come on top.
UniProt P00742: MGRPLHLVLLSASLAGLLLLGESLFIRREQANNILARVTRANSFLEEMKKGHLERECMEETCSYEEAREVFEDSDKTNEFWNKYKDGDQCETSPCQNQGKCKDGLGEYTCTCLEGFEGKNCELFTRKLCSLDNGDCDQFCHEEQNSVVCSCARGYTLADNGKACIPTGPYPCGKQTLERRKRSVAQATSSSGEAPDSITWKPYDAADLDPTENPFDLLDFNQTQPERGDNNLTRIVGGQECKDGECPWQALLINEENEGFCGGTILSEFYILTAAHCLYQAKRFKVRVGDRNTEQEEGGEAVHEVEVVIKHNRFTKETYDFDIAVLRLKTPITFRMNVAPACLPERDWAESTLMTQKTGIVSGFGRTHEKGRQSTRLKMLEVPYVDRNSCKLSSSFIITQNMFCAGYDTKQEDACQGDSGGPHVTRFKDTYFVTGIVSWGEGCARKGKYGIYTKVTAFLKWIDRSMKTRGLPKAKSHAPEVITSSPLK

Results are given in words; binding and its absence hold for the method and conditions named. Some entries that bind do so weakly or less than the wild type.

B1: soybean trypsin inhibitor-agarose (STI-Agarose, Sigma Catalog #T0637) (protein, UniProt P01070 25-205, looked up)
chain: DFVLDNEGNPLENGGTYYILSDITAFGGIRAAPTGNERCPLTVVQSRNELDKGIGTIISSPYRIRFIAEGHPLSLKFDSFAVIMLCVGIPTEWSVVEDLPEGPAVKIGENKDAMDGWFRLERVSDDEFNNYKLVFCPQQAEDDKCGDIGISIDHDDGTRRLVVSKNKPLVVQFQKLDKESL
modifications: coupled to agarose
On to B1, for which the binding entry is given as “binds”.

Values taken from US20100125052A1.
